Measurements taken from PMC6165859.
Like-named read-outs stand apart in the source and are kept apart here. These are yes or no findings as the source states them, for the method shown. Binding seen in cells or lysates may run through a third protein. Some binding calls cover weakened binding; strength is not graded here.

Protein sequences, listed by entry. Tags and fused reporters are not part of them. Lines headed by an entry give the natural chain unless they say otherwise; changes in a name come on top. Chains listed by the source or under a name are the forms on record and can include a tag or linker. Residues count along the entry.
UniProt Q9H0Y0: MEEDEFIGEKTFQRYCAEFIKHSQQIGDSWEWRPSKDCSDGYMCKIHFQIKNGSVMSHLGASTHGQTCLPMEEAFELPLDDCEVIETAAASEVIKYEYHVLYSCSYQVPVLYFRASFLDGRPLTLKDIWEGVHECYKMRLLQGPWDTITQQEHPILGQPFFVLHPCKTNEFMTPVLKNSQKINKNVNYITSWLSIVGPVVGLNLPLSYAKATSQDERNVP
Flag-tagged ATG10S (shorter isoform of autophagy-related 10 protein) (Q9H0Y0, form named): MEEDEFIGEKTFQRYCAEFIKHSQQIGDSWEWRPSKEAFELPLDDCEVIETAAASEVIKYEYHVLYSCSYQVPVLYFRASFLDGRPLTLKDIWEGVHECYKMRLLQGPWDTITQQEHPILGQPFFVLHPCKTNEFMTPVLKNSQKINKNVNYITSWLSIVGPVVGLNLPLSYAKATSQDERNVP
Flag-tagged ATG10^ΔC44 (Q9H0Y0, form named): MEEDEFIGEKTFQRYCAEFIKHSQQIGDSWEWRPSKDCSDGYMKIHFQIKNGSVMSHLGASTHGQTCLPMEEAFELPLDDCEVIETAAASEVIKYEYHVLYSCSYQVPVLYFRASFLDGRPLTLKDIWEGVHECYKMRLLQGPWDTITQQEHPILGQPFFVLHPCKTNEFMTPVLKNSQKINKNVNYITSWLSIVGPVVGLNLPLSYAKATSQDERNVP
UniProt P13473, residues 29-410: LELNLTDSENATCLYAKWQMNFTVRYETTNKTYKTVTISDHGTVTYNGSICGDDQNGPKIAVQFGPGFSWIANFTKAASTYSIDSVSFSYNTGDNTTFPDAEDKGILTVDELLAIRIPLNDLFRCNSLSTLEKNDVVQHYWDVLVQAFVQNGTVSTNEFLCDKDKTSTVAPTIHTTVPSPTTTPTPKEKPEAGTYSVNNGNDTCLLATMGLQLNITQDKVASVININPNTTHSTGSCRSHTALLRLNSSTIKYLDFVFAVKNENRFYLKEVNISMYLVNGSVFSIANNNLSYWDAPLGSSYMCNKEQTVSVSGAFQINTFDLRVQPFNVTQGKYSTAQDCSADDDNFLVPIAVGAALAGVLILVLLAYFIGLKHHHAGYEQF
HCV NS3 (HCV 2a virion, J6/JFH/JC) (Q99IB8, residues 1031-1661): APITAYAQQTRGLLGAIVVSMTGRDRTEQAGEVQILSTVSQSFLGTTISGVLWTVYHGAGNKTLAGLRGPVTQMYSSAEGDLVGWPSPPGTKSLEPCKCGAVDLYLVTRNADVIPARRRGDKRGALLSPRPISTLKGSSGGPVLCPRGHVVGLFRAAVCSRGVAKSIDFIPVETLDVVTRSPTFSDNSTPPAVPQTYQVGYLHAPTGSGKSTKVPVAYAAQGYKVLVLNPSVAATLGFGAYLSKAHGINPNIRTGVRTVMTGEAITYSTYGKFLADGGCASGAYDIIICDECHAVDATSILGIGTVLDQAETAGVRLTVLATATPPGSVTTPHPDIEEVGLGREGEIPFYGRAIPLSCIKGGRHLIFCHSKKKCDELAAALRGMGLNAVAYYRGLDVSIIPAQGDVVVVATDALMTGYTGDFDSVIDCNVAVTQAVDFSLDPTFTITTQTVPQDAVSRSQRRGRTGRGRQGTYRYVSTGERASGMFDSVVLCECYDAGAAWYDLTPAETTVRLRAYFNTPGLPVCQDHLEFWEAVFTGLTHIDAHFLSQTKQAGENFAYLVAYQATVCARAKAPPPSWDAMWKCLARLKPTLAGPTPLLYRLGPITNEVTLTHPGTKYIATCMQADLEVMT
HCV NS4B (HCV 2a virion, J6/JFH/JC) (Q99IB8, residues 1716-1976): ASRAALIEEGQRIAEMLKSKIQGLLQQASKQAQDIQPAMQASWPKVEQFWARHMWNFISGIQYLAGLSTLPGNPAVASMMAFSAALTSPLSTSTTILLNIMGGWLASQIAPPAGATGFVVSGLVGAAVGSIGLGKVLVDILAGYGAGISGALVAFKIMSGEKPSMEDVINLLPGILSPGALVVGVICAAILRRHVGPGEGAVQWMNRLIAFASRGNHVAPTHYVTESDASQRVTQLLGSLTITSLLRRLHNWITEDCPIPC

Experiments:
[1] = biological target: Flag-tagged ATG10^C44S (human) (UniProt Q9H0Y0); experiment: co-IP
[2] = biological target: Flag-tagged ATG10S (shorter isoform of autophagy-related 10 protein) (human) (UniProt Q9H0Y0); experiment: co-IP
[3] = biological target: LAMP2 (lysosomal associated membrane protein 2) (human (endogenous in HepG2)) (UniProt P13473); experiment: co-IP
[4] = biological target: Flag-tagged ATG10^C44A (human) (UniProt Q9H0Y0); experiment: co-IP
[5] = biological target: Flag-tagged ATG10^C135S (human) (UniProt Q9H0Y0); experiment: co-IP
[6] = biological target: Flag-tagged ATG10^ΔC44 (human) (UniProt Q9H0Y0); experiment: co-IP
[7] = biological target: Flag-tagged ATG10^C44S/C135S (human) (UniProt Q9H0Y0); experiment: co-IP
[8] = biological target: LAMP2 (lysosomal associated membrane protein 2) (human (endogenous in HepG2)) (UniProt P13473); experiment: co-IP; remark: listed apart in the source
[9] = biological target: Flag-tagged ATG10^C44S (human) (UniProt Q9H0Y0); experiment: co-IP; HepG2 HCV subgenomic replicon cells transfected with Flag-tagged ATG10 mutants; non-denaturing lysis buffer; anti-Flag, protein A/G plus agarose; immunoblot
[10] = biological target: Flag-tagged ATG10^C44A (human) (UniProt Q9H0Y0); experiment: as above
[11] = biological target: Flag-tagged ATG10^C135S (human) (UniProt Q9H0Y0); experiment: as above
[12] = biological target: Flag-tagged ATG10^ΔC44 (human) (UniProt Q9H0Y0); experiment: as above
[13] = biological target: Flag-tagged ATG10^C44S/C135S (human) (UniProt Q9H0Y0); experiment: as above

Measured: binding

P62 (sequestosome 1) (from UniProt Q13501 1-440)
binds: [1] | [2] | [3] | [4] | [5] | [6] | [7]

HCV NS4B (HCV 2a virion, J6/JFH/JC) (from UniProt Q99IB8 1716-1976)
binds: [1] | [2] | [4] | [5] | [6] | [7]

HCV NS3 (HCV 2a virion, J6/JFH/JC) (from UniProt Q99IB8 1031-1661) (enzyme)
binds: [1] | [2] | [4] | [5] | [6] | [7]

B1: IL28A (interleukin-28A) (protein, UniProt Q8IZJ0 26-200)
chain: VPVARLHGALPDARGCHIAQFKSLSPQELQAFKRAKDALEESLLLKDCRCHSRLFPRTWDLRQLQVRERPMALEAELALTLKVLEATADTDPALVDVLDQPLHTLHHILSQFRACIQPQPTAGPRTRGRLHHWLYRLQEAPKKESPGCLEASVTFNLFRLLTRDLNCVASGDLCV
binds: [8] | [9] | [10] | [11] | [12] | [13]
